Test results taken from PubChem BioAssay (EPA / NIEHS).
“And” between values parts separate entries of the source, which are not always exact repeats. Equal entries are not always repeated. Inconclusive means that the source gave no clear call. Such entries were picked first, then a sample of the others. Potencies beside an inconclusive call are fits to weak or partial responses and may not hold up. Some structures have more than one record in an assay (separate samples or runs), and their calls can disagree. The source made the active and inactive calls. How the source made its calls: active means hit-call score of the fitted dose curve at least 0.9, where 1 is the maximum; inconclusive means response in the unintended direction; inactive means score below 0.9.

By UniProt entry, the sequences of proteins in these tests, tags left out.
UniProt P04637, whole entry, looked up: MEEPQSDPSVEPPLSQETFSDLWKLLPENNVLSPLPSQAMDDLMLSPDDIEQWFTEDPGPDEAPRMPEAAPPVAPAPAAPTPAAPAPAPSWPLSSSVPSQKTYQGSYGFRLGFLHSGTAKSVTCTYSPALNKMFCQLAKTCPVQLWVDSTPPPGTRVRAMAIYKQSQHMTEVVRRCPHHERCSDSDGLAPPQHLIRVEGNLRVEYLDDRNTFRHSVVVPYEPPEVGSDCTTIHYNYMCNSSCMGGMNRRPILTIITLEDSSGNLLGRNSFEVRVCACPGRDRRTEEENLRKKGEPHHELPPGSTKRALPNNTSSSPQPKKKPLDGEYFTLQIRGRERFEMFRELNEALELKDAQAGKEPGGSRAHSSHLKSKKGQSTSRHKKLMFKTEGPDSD

test system: not listed separately; test: TOX21_p53_BLA_p3_viability: Viability Assessment in the Tox21 HCT-116 p53 Agonism Beta-lactamase Assay, Phase 3 (AID 2283593);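 further: cells exposed to compound for 16 h before reading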
Procedure, shortened: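 HCT-116 cells (4000/well) rested 5 h at 37C, then got DMSO compounds by pin tool (217-fold dilution) for 16 h at 37C, 5% CO2. After the bla read, CellTiter-Glo was added and luminescence read at 30 min, room temperature.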

| SMILES | AC50 | outcome |
| --- | --- | --- |
| CCOc1ccccc1O | inconclusive: 46.1 µM |  |
| CCCc1ccc(N)cc1 | inconclusive: 46.1 µM |  |
| Cc1ccc(S(=O)(=O)O)c(C)c1 | inconclusive: 46.1 µM |  |
| C=CCCCCCCCCCCCC | inconclusive: 86.7 µM |  |
| O=C(OCCOCCOC(=O)c1ccccc1)c1ccccc1 | inconclusive: 46.1 µM and inconclusive: 85.9 µM |  |
| CC(C)(C#N)c1cc(Cn2cncn2)cc(C(C)(C)C#N)c1 | inconclusive: 15.7 µM | inactive |
| NCCNCCN | inconclusive: 14.9 µM and inconclusive: 23 µM | inactive |
| Oc1cccc2ccccc12 | inconclusive: 46.1 µM | inactive |
| CC1=CC=C(C(C)C)CC1 | inconclusive: 0.0429 µM |  |
| CCN(Cc1c(F)cccc1Cl)c1c([N+](=O)[O-])cc(C(F)(F)F)cc1[N+](=O)[O-] |  | inactive |
| CC(C)CCCCCCCOC(=O)CCCCC(=O)OCCCCCCCC(C)C | inconclusive: 57.6 µM | inactive |
| CC(C)Nc1nc(N)nc(Cl)n1 | inconclusive: 0.465 µM |  |
| F[Si-2](F)(F)(F)(F)F | inconclusive: 30.6 µM | inactive |

biological target: Cellular tumor antigen p53 (Homo sapiens) (UniProt P04637); test: TOX21_p53_BLA_p3_ratio: Tox21 HCT-116 p53 Agonism Beta-lactamase Assay, Ratio, Phase 3 (AID 2283596)
Procedure, shortened: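 HCT116 p53-bla cells (4000/well) given compound in DMSO (217-fold dilution) after 5 h, incubated 16 h at 37C. CCF4-AM substrate 2 h at room temperature; 460/530 nm emission ratio, gain fitted against DMSO.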

| SMILES | AC50 | outcome |
| --- | --- | --- |
| CCOCCOCCOCCO | inconclusive: 46.1 µM |  |
| COS(=O)(=O)O | inconclusive: 46 µM |  |
| Cc1cc(=O)oc2cc(N(C)C)ccc12 | active: 50.6 µM |  |
| C=CCCCCCCCCC(=O)OCC | inconclusive: 46.1 µM |  |
| CC(C=O)Cc1ccc(C(C)(C)C)cc1 (stereo not drawn) | inconclusive: 46.1 µM | inactive |
| O=C(O)C1CCC(C(=O)O)CC1 (stereo not drawn) |  | inactive |
| Cc1ccc(O)c(C(C)(C)C)c1 | active: 49.1 µM |  |
| Cc1occc1C(=O)Nc1ccc(C(=O)N2CCC(F)(F)/C(=C\C(=O)N3CCC(N4CCCCC4)CC3)c3ccccc32)cc1 |  | inactive |
| CCSC(=O)N(CC(C)C)CC(C)C |  | inactive |
| CCOc1ccccc1O | inconclusive: 46.1 µM |  |
| Cc1ccc(S(=O)(=O)O)c(C)c1 | inconclusive: 46.1 µM | inactive |
| CSc1nc(NC2CC2)nc(NC(C)(C)C)n1 | inconclusive: 46.1 µM |  |
| O=C(OCCOCCOC(=O)c1ccccc1)c1ccccc1 | inconclusive: 46 µM |  |
| CC(C)(C#N)c1cc(Cn2cncn2)cc(C(C)(C)C#N)c1 |  | inactive |
| NCCNCCN | inconclusive: 46.2 µM and inconclusive: 23 µM |  |
| CCCCCCOC(=O)CCCCC(=O)OCCCCCC | inconclusive: 46.1 µM |  |
| Oc1cccc2ccccc12 | inconclusive: 46.1 µM and inconclusive: 47.1 µM |  |
| CC(=O)C(C)=CC1C(C)=CCCC1(C)C (stereo not drawn) |  | inactive |
| CCCOCCO | inconclusive: 43.8 µM and inconclusive: 46.5 µM |  |
| CC1=CC=C(C(C)C)CC1 | inconclusive: 75 µM |  |
| CC(C)Nc1nc(N)nc(Cl)n1 | inconclusive: 46 µM |  |
| F[Si-2](F)(F)(F)(F)F | inconclusive: 46.1 µM |  |
